Structures were worked out from names or drawings and are uncertain.
Columns and labels:
[1] = target: T1, FAP (Homo sapiens, UniProt Q12884); experiment: Relative cleavage rates of coumarin (AMCC) dipeptide substrates by FAP
[2] = target: T2, DPP-4 (Homo sapiens, UniProt P27487); experiment: Hydrolysis of FRET-labelled peptide substrate by DPP-4; conditions: FIG. 2
[3] = target: T2, DPP-4; experiment: Relative cleavage rates of coumarin (AMCC) dipeptide substrates by DPP-4
[4] = target: T1, FAP; experiment: Cleavage of FRET labelled peptide substrates by FAP; conditions: FIG. 2
[5] = P2-Pro-AMCC substrates, hydrolysis rates normalized to Gly-Pro-AMCC

Chains of the proteins cited; added tags and fusions are not shown. Residues count along the entry.
UniProt Q12884, 38-760 limits assumed: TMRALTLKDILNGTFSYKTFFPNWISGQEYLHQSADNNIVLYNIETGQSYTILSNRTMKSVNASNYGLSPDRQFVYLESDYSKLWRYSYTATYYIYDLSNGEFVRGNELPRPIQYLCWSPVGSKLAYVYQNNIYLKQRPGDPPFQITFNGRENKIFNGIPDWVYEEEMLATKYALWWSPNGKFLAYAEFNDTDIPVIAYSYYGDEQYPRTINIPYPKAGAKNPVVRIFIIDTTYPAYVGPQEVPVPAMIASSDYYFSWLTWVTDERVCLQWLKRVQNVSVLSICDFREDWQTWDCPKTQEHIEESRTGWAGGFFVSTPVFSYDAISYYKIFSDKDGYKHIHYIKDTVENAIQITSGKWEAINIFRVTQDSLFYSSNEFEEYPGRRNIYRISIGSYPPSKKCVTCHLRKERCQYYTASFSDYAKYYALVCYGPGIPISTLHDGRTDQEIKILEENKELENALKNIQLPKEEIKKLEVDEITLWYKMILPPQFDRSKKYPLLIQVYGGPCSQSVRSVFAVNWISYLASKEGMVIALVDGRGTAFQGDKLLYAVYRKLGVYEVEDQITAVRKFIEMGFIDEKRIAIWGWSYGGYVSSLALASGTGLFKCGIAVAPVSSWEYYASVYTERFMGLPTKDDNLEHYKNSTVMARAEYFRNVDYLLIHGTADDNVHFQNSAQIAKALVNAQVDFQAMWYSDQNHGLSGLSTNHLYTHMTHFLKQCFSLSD
UniProt P27487, 39-766 limits assumed: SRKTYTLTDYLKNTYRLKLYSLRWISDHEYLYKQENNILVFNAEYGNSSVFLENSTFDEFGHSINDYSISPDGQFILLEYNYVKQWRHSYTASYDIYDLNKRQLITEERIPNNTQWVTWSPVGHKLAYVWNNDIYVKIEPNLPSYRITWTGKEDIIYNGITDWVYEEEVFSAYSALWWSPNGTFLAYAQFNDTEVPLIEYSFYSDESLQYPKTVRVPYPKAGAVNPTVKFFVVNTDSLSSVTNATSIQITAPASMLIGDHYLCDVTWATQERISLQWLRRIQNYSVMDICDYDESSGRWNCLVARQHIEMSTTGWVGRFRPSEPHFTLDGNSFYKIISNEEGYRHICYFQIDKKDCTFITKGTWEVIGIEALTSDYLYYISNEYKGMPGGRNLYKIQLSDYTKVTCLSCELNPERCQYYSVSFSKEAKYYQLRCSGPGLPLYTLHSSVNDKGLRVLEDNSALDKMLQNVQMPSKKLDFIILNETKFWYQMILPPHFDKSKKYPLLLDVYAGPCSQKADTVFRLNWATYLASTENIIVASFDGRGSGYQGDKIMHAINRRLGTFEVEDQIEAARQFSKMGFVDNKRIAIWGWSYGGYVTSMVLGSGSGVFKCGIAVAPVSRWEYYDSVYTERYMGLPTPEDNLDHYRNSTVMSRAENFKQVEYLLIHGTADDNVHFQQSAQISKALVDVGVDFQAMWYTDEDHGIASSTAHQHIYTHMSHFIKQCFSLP

relative cleavage rate by FAP ([1]; N-blocked Gly-Pro-AMCC substrates 6, normalized to N-unblocked Gly-Pro-AMCC, FAP 37 nM): 100% | Relative Hydrolysis rate by FAP [1, 5]: 100 | hydrolysis of FRET-labelled peptide by DPP-4 [2]: does not | relative cleavage rate by DPP-4 ([3]; N-blocked Gly-Pro-AMCC substrates 6, normalized to N-unblocked Gly-Pro-AMCC, DPP-4 6.8 nM): 100% | Relative Hydrolysis rate by DPP-4 [3, 5]: 100 | hydrolysis of FRET-labelled peptide by FAP [4]: cleaves
SMILES: C[C@@H](O)[C@H](NC(=O)[C@H](CCCCNC(=O)c1ccc(/N=N/c2ccc(N(C)C)cc2)cc1)NC(=O)[C@@H](N)CCCNC(=N)N)C(=O)N[C@@H](CO)C(=O)NCC(=O)N1CCC[C@H]1C(=O)N[C@@H](CC(N)=O)C(=O)N[C@@H](CCC(N)=O)C(=O)N[C@@H](CCC(=O)O)C(=O)N[C@@H](CCC(N)=O)C(=O)N[C@@H](CCC(=O)NCCNc1cccc2c(S(=O)(=O)O)cccc12)C(=O)N[C@@H](CCCNC(=N)N)C(=O)O

Source: patent publication US7399869B2, “Fibroblast activation protein inhibitor compounds and methods” (Genentech, Inc., priority 2005, dated 2008)
